Data set [1] can be described thus: Lipophilicity, log D of the compound. Conditions: octanol/water.
For data set [2] the following is noted: rat, in vivo, po, 24 h.
Another data set can be described thus: physchem. Conditions: buffer, pH 7.4.

Values after ≈ are worked out from the molar mass of the structure shown.

As a reminder, the logD is the decadic logarithm of the distribution of all forms, ionised or not, between an organic phase and buffer at a given pH. As usually defined, the solubility (thermodynamic) is the concentration in solution at equilibrium with solid.

For `C[C@@H](N)c1cc(Cl)ccc1Cn1c(=S)[nH]c(=O)c2[nH]cnc21`, in data set [1], the pH-dependent lipophilicity (logD) worked out at 0.7. In data set [2], this compound displayed a CL of 20 mL/min/kg. In the data set “physchem”, the thermodynamic solubility at 18 h was determined as 880 µM (≈ 296 µg/mL).

The values are drawn from ChEMBL document CHEMBL5126625, “Discovery of AZD4831, a Mechanism-Based Irreversible Inhibitor of Myeloperoxidase, As a Potential Treatment for Heart Failure with Preserved Ejection Fraction” (J Med Chem, 2022).
